Test results taken from patent publication US10563263B2, “Genetic polymorphisms associated with statin response and cardiovascular diseases, methods of detection and uses thereof” (CELERA CORPORATION, priority 2010, dated 2020).
Further values from the same series stand in other lists.

Tested on: CHD
Test: Meta-analysis of CARE and WOSCOPS combined, synergy index, CHD endpoint
Type: in vivo, human
Excerpt: Tables 4-5 provide meta-analyses of CARE and WOSCOPS combined (2nd section of each table) for two endpoints (CHD and CVD) and three genetic models (dominant, recessive, and additive), as well as logistic regression analyses of CARE (3rd section of each table) and WOSCOPS (4th section of each table) individually.
Tables 12 and 17 provide results of meta-analysis of the CARE and WOSCOPS sample sets combined by direct genotyping and by imputing genotypes.
“P” indicates the p-value, and “P(R)” (or “P.R.”) indicates the p-value random effect. Both of these are p-values corresponding to a statistical test of whether the combined synergy index is equal to one but use different assumptions to derive the p-value. “P” is calculated using a fixed effects model, and “P(R)” is calculated using a random effects model.
“OR” indicates the odds ratio (synergy index) calculated from a fixed effects model, and “OR(R)” (or “OR.R.”) indicates the odds ratio (synergy index) calculated from a random effects model.

[1] = rs2095586 allele A DOMINANT Imputed
[2] = rs2095606 allele A DOMINANT Imputed
[3] = rs2102374 allele A ADDITIVE Imputed
[4] = rs2102374 allele A DOMINANT Imputed
[5] = rs2108426 allele C DOMINANT Imputed
[6] = rs2110664 allele A DOMINANT Imputed
[7] = rs2132242 allele A ADDITIVE Imputed
[8] = rs2132242 allele A DOMINANT Imputed
[9] = rs2158958 allele A DOMINANT Imputed

## CC[C@H](C)C(=O)O[C@H]1C[C@H](O)C=C2C=C[C@H](C)[C@H](CC[C@@H](O)C[C@@H](O)CC(=O)O)[C@H]21 [Pravastatin, pravastatin]
rs1582323 allele A DOMINANT Imputed, fixed effect
  OR: 0.6171
rs1582323 allele A DOMINANT Imputed, random effect
  OR(R): 0.6171
rs1592485 allele C DOMINANT Imputed, fixed effect
  OR: 0.6167
rs1592485 allele C DOMINANT Imputed, random effect
  OR(R): 0.6167
rs1600954 allele T ADDITIVE Imputed, fixed effect
  OR: 1.4064
rs1600954 allele T ADDITIVE Imputed, random effect
  OR(R): 1.4064
rs1600954 allele T GENOTYPIC Imputed, fixed effect
  OR: 1.9926
rs1600954 allele T GENOTYPIC Imputed, random effect
  OR(R): 1.9926
rs1705244 allele G vs A (ref)
  Meta-analysis OR: 0.60
rs1705261 allele A RECESSIVE Imputed, fixed effect
  OR: 1.7058
rs1705261 allele A RECESSIVE Imputed, random effect
  OR(R): 1.7058
rs1818885 allele G GENOTYPIC Imputed, fixed effect
  OR: 2.1046
rs1818885 allele G GENOTYPIC Imputed, random effect
  OR(R): 2.1046
rs1832222 allele G DOMINANT Imputed, fixed effect
  OR: 1.5562
rs1832222 allele G DOMINANT Imputed, random effect
  OR(R): 1.5562
rs1861326 allele A vs G (ref)
  Meta-analysis OR: 0.64
rs1861327 allele G DOMINANT Imputed, fixed effect
  OR: 0.6096
rs1861327 allele G DOMINANT Imputed, random effect
  OR(R): 0.6096
rs1864924 allele G vs A (ref)
  Meta-analysis OR: 1.40
rs1866386, A1 (non-ref) A, A2 (ref) G
  Meta-analysis OR: 0.74
rs1868581 allele G ADDITIVE Imputed, fixed effect
  OR: 1.4042
rs1868581 allele G ADDITIVE Imputed, random effect
  OR(R): 1.4042
rs1868581 allele G GENOTYPIC Imputed, fixed effect
  OR: 2.1147
rs1868581 allele G GENOTYPIC Imputed, random effect
  OR(R): 2.1147
rs1874313 allele A ADDITIVE Imputed, fixed effect
  OR: 0.7177
rs1874313 allele A ADDITIVE Imputed, random effect
  OR(R): 0.7177
rs1874313 allele A DOMINANT Imputed, fixed effect
  OR: 0.6096
rs1874313 allele A DOMINANT Imputed, random effect
  OR(R): 0.6096
rs1876409 allele C DOMINANT Imputed, fixed effect
  OR: 0.6278
rs1876409 allele C DOMINANT Imputed, random effect
  OR(R): 0.6278
rs1877986 allele A vs G (ref)
  Meta-analysis OR: 0.62
rs1913201 allele G ADDITIVE Imputed, fixed effect
  OR: 0.7392
rs1913201 allele G ADDITIVE Imputed, random effect
  OR(R): 0.7392
rs1913201 allele G DOMINANT Imputed, fixed effect
  OR: 0.6285
rs1913201 allele G DOMINANT Imputed, random effect
  OR(R): 0.6285
rs1913201 allele G GENOTYPIC Imputed, fixed effect
  OR: 0.574
rs1913201 allele G GENOTYPIC Imputed, random effect
  OR(R): 0.574
rs1916922 allele T GENOTYPIC Imputed, fixed effect
  OR: 2.1096
rs1916922 allele T GENOTYPIC Imputed, random effect
  OR(R): 2.1096
rs1936871 allele G DOMINANT Genotyped, fixed effect
  OR: 0.6214
rs1936871 allele G DOMINANT Genotyped, random effect
  OR(R): 0.6214
rs1961157 allele T RECESSIVE Imputed, fixed effect
  OR: 0.5553
rs1961157 allele T RECESSIVE Imputed, random effect
  OR(R): 0.5553
rs1987179 allele T ADDITIVE Imputed, fixed effect
  OR: 0.7236
rs1987179 allele T ADDITIVE Imputed, random effect
  OR(R): 0.7236
rs1987179 allele T DOMINANT Imputed, fixed effect
  OR: 0.6536
rs1987179 allele T DOMINANT Imputed, random effect
  OR(R): 0.6536
rs1990023 allele T DOMINANT Imputed, fixed effect
  OR: 0.6661
rs1990023 allele T DOMINANT Imputed, random effect
  OR(R): 0.6661
rs1995025 allele C DOMINANT Imputed, fixed effect
  OR: 1.5088
rs1995025 allele C DOMINANT Imputed, random effect
  OR(R): 1.5088
rs2016194 allele G DOMINANT Imputed, fixed effect
  OR: 0.6718
rs2016194 allele G DOMINANT Imputed, random effect
  OR(R): 0.6718
rs2023651 allele T ADDITIVE Imputed, fixed effect
  OR: 0.6532
rs2023651 allele T ADDITIVE Imputed, random effect
  OR(R): 0.6532
rs2024902 allele A ADDITIVE Imputed, fixed effect
  OR: 1.9871
rs2024902 allele A ADDITIVE Imputed, random effect
  OR(R): 1.9871
rs2024902 allele A DOMINANT Imputed, fixed effect
  OR: 2.0957
rs2024902 allele A DOMINANT Imputed, random effect
  OR(R): 2.0957
rs2025107 allele A DOMINANT Imputed, fixed effect
  OR: 1.9576
rs2025107 allele A DOMINANT Imputed, random effect
  OR(R): 1.9576
rs2025108 allele T DOMINANT Imputed, fixed effect
  OR: 1.9168
rs2025108 allele T DOMINANT Imputed, random effect
  OR(R): 1.9168
rs2031987 allele T GENOTYPIC Imputed, fixed effect
  OR: 2.2431
rs2031987 allele T GENOTYPIC Imputed, random effect
  OR(R): 2.2431
rs2052428 allele C DOMINANT Imputed, fixed effect
  OR: 0.6109
rs2052428 allele C DOMINANT Imputed, random effect
  OR(R): 0.6109
rs2053230 allele C ADDITIVE Imputed, fixed effect
  OR: 0.5491
rs2053230 allele C ADDITIVE Imputed, random effect
  OR(R): 0.5491
rs2062448 allele T DOMINANT Imputed, fixed effect
  OR: 0.5424
rs2062448 allele T DOMINANT Imputed, random effect
  OR(R): 0.5424
rs2063420 allele C RECESSIVE Imputed, fixed effect
  OR: 1.8009
rs2063420 allele C RECESSIVE Imputed, random effect
  OR(R): 1.8009
rs2063591 allele C ADDITIVE Imputed, fixed effect
  OR: 0.7622
rs2063591 allele C ADDITIVE Imputed, random effect
  OR(R): 0.7622
rs2063591 allele C DOMINANT Imputed, fixed effect
  OR: 0.619
rs2063591 allele C DOMINANT Imputed, random effect
  OR(R): 0.619
rs2069542 allele A vs G (ref)
  Meta-analysis OR: 1.62
[1]
  OR: 1.582
  OR(R): 1.582
[2]
  OR: 0.5812
  OR(R): 0.5812
[3]
  OR: 0.6664
  OR(R): 0.6664
[4]
  OR: 0.6016
  OR(R): 0.6016
[5]
  OR: 0.6718
  OR(R): 0.6718
[6]
  OR: 1.5536
  OR(R): 1.5536
[7]
  OR: 0.7156
  OR(R): 0.7156
[8]
  OR: 0.6098
  OR(R): 0.6098
rs2157673 allele G vs A (ref)
  Meta-analysis OR: 1.50
[9]
  OR: 0.6712
  OR(R): 0.6712
rs2158961 allele G DOMINANT Imputed
  OR: 0.6715
